In PubChem BioAssay AID1347075 (National Center for Advancing Translational Sciences (NCATS), 2019):
Screen size: about 400,000 compounds; about 5,500 (1.4%) were called active. The inconclusive results got no clear call from the source; some entries with a clear call stand among them for comparison. Calls follow the shape of the dose curve; as a rule, active = well fitted cell-killing curve with a large enough effect; inconclusive = small, poorly fitted or top-dose-only effect, or effect the other way; inactive = flat fitted curve, though single readings scatter. Potencies of inconclusive entries are doubtful fits and often do not repeat.

Experiment: qHTS assay for MDR1-selective chemotherapeutics: Primary screen using the parental adenocarcinoma cell KB-3-1; also: nearly all actives have a fitted effect of over 60% in size
Conditions: KB-3-1 viability, CellTiter-Glo ATP luminescence, 72 h; activity change, negative = cytotoxic: at 46.1 µM (top of the series)
Method in brief: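 Screening of KB-3-1 cells (DMEM, 10% FBS, phenol-red free) ran from lowest to highest compound concentration; after 72 h at 37 °C viability was read luminescently and curves fitted.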
% is scaled to controls: 0 for no effect and ±100 for the full control effect; potency is read from the fitted curve at half-maximal effect.

| Structure (SMILES) | activity change, negative = cytotoxic | Potency |
| --- | --- | --- |
| CN1c2ccccc2C(C)(C)C12CC(c1ccc(S(=O)(=O)N3CCCCC3)cc1)=NO2 (centres undefined) | inactive: -24.1% |  |
| Cc1ccc(Cl)cc1N1CCN(C(=O)c2cc3c(=O)[nH]c4ccccc4c3n2C)CC1 |  | inconclusive: 25.9 µM [cytotoxic, single point] |
| Cn1c(=O)c2c(nc(NCC3CCCC(CN)C3)n2Cc2ccc(Cl)cc2Cl)n(C)c1=O (centres undefined) |  | inconclusive: 6.51 µM [cytotoxic, partial curve] |
| COc1ccc(CC(=O)Nc2cccc(-c3ccc4nncn4n3)c2)cc1OC |  | inconclusive: 11.6 µM [cytotoxic, partial curve, poor fit] |
| CCOc1cc2[nH]c(=O)n(CCCC(=O)N3CCN(c4ccc(OC)cc4)CC3)c(=O)c2cc1OCC | inactive: -13.2% |  |
| CCOC(=O)C1CCN(c2cc(C)nc3cc(-c4cccc(F)c4)nn23)CC1 | inactive: 10.7% |  |
| COc1ccc(NS(=O)(=O)c2cc(N)ccc2N2CCCC2)cc1 |  | inconclusive: 20.6 µM [cytotoxic, single point] |
| CC(=O)c1ccc(N(CC(=O)NC2CCCC2)C(=O)CNC(=O)c2cccs2)cc1 |  | inconclusive: 7.31 µM [rising, partial curve] |
| CCOC(=O)c1c(C)[nH]c(C(=O)OCC(=O)N2CCN(S(=O)(=O)c3ccc(C)cc3C)CC2)c1C |  | inconclusive: 29.1 µM [cytotoxic, single point] |
| O=C(NC(NC(=S)Nc1ccc(Cl)cc1Cl)C(Cl)(Cl)Cl)c1cccc([N+](=O)[O-])c1 (centres undefined) |  | inconclusive: 29.1 µM [cytotoxic, single point] |
| Cc1c(NC(=O)c2ccc([N+](=O)[O-])o2)cccc1-c1nc2ncccc2o1 |  | inconclusive: 29.1 µM [cytotoxic, single point] |
| C/C(=N/NC(=O)c1ccncc1)c1ccc(NC(=O)c2ccc(Cl)cc2Cl)cc1 |  | inconclusive: 29.1 µM [rising, single point] |
| Oc1c(N=Nc2ccccn2)ccc2ccccc12 |  | active: 1.16 µM |
| CNC(C)C#Cc1ccc2sc3cccc(OC)c3c(=O)c2c1 (centres undefined) | inactive: -2.99% |  |
| COc1ccc(OC)c(NS(=O)(=O)c2ccc3[nH]c4c(c3c2)CCCCC4)c1 |  | inconclusive: 23.1 µM [cytotoxic, single point] |
| CC(C)C(=O)N1CCN(c2ccc(NC(=O)c3ccc4c(c3)OCCO4)cc2Cl)CC1 |  | inconclusive: 18.4 µM [cytotoxic, single point] |
| Cc1ccc(NC(=O)COC(=O)c2ccc3c(c2)OCO3)c(C)c1 |  | inconclusive: 29.1 µM [cytotoxic, single point] |
| CC(C)Oc1ccc(C(CCN)C2CCCCC2)cc1 (centres undefined) |  | inconclusive: 25.9 µM [cytotoxic, single point] |
| COc1ccccc1OCCNC(=O)c1cccc(S(=O)(=O)NCc2ccccc2)c1 |  | inconclusive: 32.6 µM [cytotoxic, single point] |
| O=C(Nc1cccc(F)c1)Nc1nnc([C@@H]2O[C@H](CO)[C@@H](O)[C@H]2O)s1 | inactive: 4.06% |  |
| CCn1c(SC)nnc1C1CCCN(CC(=O)Nc2ccccc2N2CCOCC2)C1 (centres undefined) | inactive: 12.4% |  |
| C=CCn1c(SCC(C)=O)nc2scc(-c3ccco3)c2c1=O | inactive: -6.5% |  |
| O=C(CN1CCC(c2nc3ccccc3s2)CC1)NCc1ccccc1 | inconclusive: -35.9% [cytotoxic] |  |
| CCCCCCC=C1CCC(CN2CCCC2)C1=O (centres undefined) |  | inconclusive: 23.1 µM [cytotoxic, single point] |
| COc1ccc(S(=O)(=O)N2CCOCC2)c(Cl)c1Cl | inactive: 9.47% |  |

| Structure (SMILES) | activity change, negative = cytotoxic | Potency |
| --- | --- | --- |
| COc1ccc(-n2nnc3c(=O)n(CC(=O)N4CCCc5ccccc54)cnc32)cc1 | inactive: 5.99% |  |
| CCOc1ccc(CCNC(=O)c2cn(CC)c3ccc(S(=O)(=O)N4CCCCCC4)cc3c2=O)cc1OCC | inactive: -6.45% |  |
| O=C(Nc1ccccc1)Nc1cc(Cl)cc(Cl)c1 |  | inconclusive: 29.1 µM [cytotoxic, single point] |
| CC(C)C(=O)Nc1nnc(SCC(=O)Nc2ccc3c(c2)OCCO3)s1 |  | inconclusive: 10.3 µM [rising, partial curve, poor fit] |
| Nn1cnnc1N/N=C/c1ccccc1C(F)(F)F | inactive: 0.118% |  |
| Oc1cccc2ccc(/C=C/c3c(F)cccc3Cl)nc12 |  | inconclusive: 25.9 µM [cytotoxic, single point] |
| CCOc1ccc(CNC(=O)CCS(=O)(=O)Cc2ccc(C)cc2)cc1OC | inactive: -9.28% |  |
| CNC(=S)N1N=C(c2ccccc2)CC1c1ccccc1Cl (centres undefined) |  | inconclusive: 29.1 µM [cytotoxic, single point] |
| COc1ccc(Cl)cc1-c1cc(C(=O)NCc2ccccc2)[nH]n1 | inactive: -12.3% |  |
| NS(=O)(=O)c1cccc(Nc2nc3ccccc3nc2NS(=O)(=O)c2ccc(Cl)cc2)c1 | inactive: -3.71% |  |
| CC(=O)Nc1ccc(NC(=O)C2CCCN2C(=O)NCc2ccccc2)cc1 (centres undefined) |  | inconclusive: 29.1 µM [rising, single point] |
| O=C(CCC(=O)c1cccs1)Nc1ncccc1O | inactive: 9.9% |  |
| COCCCN1C(=O)C(CC(=O)NCc2ccco2)CC(C(=O)N(C)C)=C1C (centres undefined) | inconclusive: 50.4% |  |
| CCC1(C)Cc2ccccc2-c2nc(NCCCO)[nH]c(=O)c21 (centres undefined) |  | inconclusive: 0.206 µM [rising, full curve] |
| O=C(Nc1ncc([N+](=O)[O-])s1)c1ccc2c(c1)OCO2 |  | active: 23.1 µM |
| O=C1OC(c2ccccc2)(c2ccccc2)c2ccccc21 | inactive: -0.0809% |  |
| CC12CC3CC(C)(C1)CC(C(=O)NC(=S)N1CCOCC1)(C3)C2 | inactive: -5.46% |  |
| COc1ccc(C(CC(=O)O)N2Cc3ccccc3C2=O)cc1 (centres undefined) | inconclusive: -40% [cytotoxic] |  |
| COC(=O)[C@@H]1C[C@@]2(O)[C@H](O)[C@H](O)[C@H](O)C[C@H]2N1Cc1cc(F)ccc1F |  | inconclusive: 20.6 µM [rising, single point] |
| C=CCC[C@@H](Cc1ccc(F)cc1)C(=O)OC[C@@H](NC(=O)[C@@H](CC=C)CC(=O)N[C@@H](CO)Cc1ccccc1)C(C)(C)C |  | inconclusive: 18.4 µM [cytotoxic, single point] |
| Cc1scc(C(=O)N2CCN(S(C)(=O)=O)CC2)c1-c1ccccc1 | inactive: 9.66% |  |
| Cc1nc(-c2ccccc2)cc(-c2ccccc2)n1 | inactive: -10.7% |  |
| Cc1cccc(N(CC(=O)Nc2ccccc2F)S(C)(=O)=O)c1 | inactive: -1.32% |  |
| CCn1c(/C=C/Nc2ccccc2)[n+](CC)c2cc(Cl)c(Cl)cc21 |  | inconclusive: 18.4 µM [cytotoxic, single point] |
| COc1ccc(C2=NNC(=Nc3cc(S(=O)(=O)N(C)C)ccc3C)SC2)c(OC)c1 |  | inconclusive: 23.1 µM [cytotoxic, single point] |

| Structure (SMILES) | activity change, negative = cytotoxic | Potency |
| --- | --- | --- |
| CCOc1ccc(C2C(C(=O)c3ccc(C)o3)=C(O)C(=O)N2c2nc(C)c(C(=O)OC)s2)cc1 (centres undefined) |  | inconclusive: 29.1 µM [cytotoxic, single point] |
| C=CCNC(=S)Nc1sc2c(c1C(=O)OCC)CC(C)(CC)OC2 (centres undefined) | inactive: -9.6% |  |
| Cc1ccc(S(=O)(=O)n2c(N)nc3cc(C)c(C)cc32)cc1 |  | inconclusive: 18.4 µM [cytotoxic, single point] |
| O=S(=O)(NC(=S)NC1CCCCC1)c1ccc(Cl)cc1 | inactive: -0.634% |  |
| COC(=O)/C=C1\OCc2ccc(C)cc21 | inactive: -10.9% |  |
| COc1cccc(NC(=O)c2ccc3c(c2)CCN3S(C)(=O)=O)c1 |  | inactive |
| Cn1cc(S(=O)(=O)N2CCc3ccccc32)cc1C(=O)NC1CCCCC1 | inactive: 7.14% |  |
| COc1ccc(C2=NOC(Cn3nc(-c4ccccc4)cc3C(=O)NCc3ccco3)C2)cc1 (centres undefined) | inconclusive: 44.5% |  |
| O=C(Nc1ccccc1)c1ccc(S(=O)(=O)NCC2CCCO2)cc1 (centres undefined) |  | inconclusive: 25.9 µM [cytotoxic, single point] |
| O=C1CCCc2cc3c(cc21)CC1(C3)Cc2cc3c(cc2C1)C(=O)CCC3 |  | active: 6.51 µM |
| CC(=O)c1ccc(Nc2cc(C)nc3ccccc23)cc1 |  | inconclusive: 14.6 µM [cytotoxic, single point] |
| CC1(c2nnc(-c3ccccc3)o2)CC(c2ccc([N+](=O)[O-])cc2)=NO1 (centres undefined) |  | active: 10.3 µM |
| NS(=O)(=O)c1ccc(CCNC(=O)c2ccc(Cl)c(S(=O)(=O)N3CCCCC3)c2)cc1 |  | inconclusive: 3.66 µM [cytotoxic, full curve, poor fit] |
| C(=Nc1ccc2ccccc2n1)c1cccnc1 | inactive: 30.9% |  |
| CN(c1ccc(C(=O)Nc2cccc([N+](=O)[O-])c2)cc1)S(C)(=O)=O |  | inconclusive: 16.4 µM [cytotoxic, single point] |
| Cc1c(C(=O)Nc2ccc(-n3c(C)nc4ccccc4c3=O)cc2)cccc1[N+](=O)[O-] | inactive: -4.25% |  |
| COc1ccc([C@H]2/C=C\CN(C(=O)[C@H](Cc3ccccc3)NC(=O)OCC3c4ccccc4-c4ccccc43)CC(=O)N2Cc2ccc(F)cc2)cc1 | inactive: -0.778% |  |
| CCN1CCN(CCNC(=O)CCCCCn2c(=O)[nH]c3cc(C(=O)OC)ccc3c2=O)CC1 | inactive: 15.9% |  |
| O=c1[nH]c(CN2CCN(S(=O)(=O)/C=C/c3ccccc3)CC2)nc2cc(Cl)ccc12 |  | active: 23.1 µM |
| CCCc1cc(N2CCOCC2)n2nc(C)c(-c3ccccc3)c2n1 |  | inconclusive: 18.4 µM [rising, single point] |
| COc1ccc(NC(=O)c2cc3c(s2)CCC(C)C3)cc1S(=O)(=O)N1CCOCC1 (centres undefined) | inactive: 0% |  |
| COc1cc(NC(=O)c2n[nH]c(=O)c3ccccc23)cc(OC)c1 | inactive: 15.9% |  |
| O=c1c(Cc2ccccc2)c(O)ccn1CCc1cnc[nH]1 | inactive: -4.37% |  |
| COc1ccc(CCNC(=S)N2CCC(C(=O)c3ccc(F)cc3)CC2)cc1OC |  | inconclusive: 20.6 µM [cytotoxic, single point] |
